Results are given in words; binding and its absence hold for the method and conditions named. Some results given as binding are weak or reduced against the parent protein; the word gives no strength.

Amino acid sequences for entries named in this document (tags omitted). Residues count along the entry.
UniProt P02787, residues 20-698: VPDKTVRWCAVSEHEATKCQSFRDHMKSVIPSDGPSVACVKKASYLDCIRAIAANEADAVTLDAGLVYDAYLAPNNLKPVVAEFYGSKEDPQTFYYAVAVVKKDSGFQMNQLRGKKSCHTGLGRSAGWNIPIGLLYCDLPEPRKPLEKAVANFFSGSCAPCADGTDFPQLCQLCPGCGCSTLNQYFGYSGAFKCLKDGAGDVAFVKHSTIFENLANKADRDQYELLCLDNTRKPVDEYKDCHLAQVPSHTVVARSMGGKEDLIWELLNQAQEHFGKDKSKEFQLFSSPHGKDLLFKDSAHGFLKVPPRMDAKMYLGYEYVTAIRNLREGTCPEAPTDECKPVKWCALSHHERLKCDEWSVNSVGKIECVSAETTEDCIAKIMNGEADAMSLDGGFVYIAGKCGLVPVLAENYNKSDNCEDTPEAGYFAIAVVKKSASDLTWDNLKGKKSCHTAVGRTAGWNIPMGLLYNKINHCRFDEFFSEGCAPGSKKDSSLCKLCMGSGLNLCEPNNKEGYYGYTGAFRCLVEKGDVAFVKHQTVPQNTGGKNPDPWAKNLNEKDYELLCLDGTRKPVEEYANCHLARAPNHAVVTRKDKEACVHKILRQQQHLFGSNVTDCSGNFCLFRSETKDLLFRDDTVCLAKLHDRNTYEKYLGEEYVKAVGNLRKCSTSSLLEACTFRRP

This note sets out measurements from article doi:10.1101/2020.03.02.972281 (bioRxiv, 2020).

This test has as its target transferrin (human, UniProt P02787 20-698). The test can be described thus: SPR. (In general: Surface plasmon resonance follows binding to a sensor surface in real time, without labels.)

B1: CD14 mutant (D44A, S46A and Q50A) (protein, UniProt P08571 20-345)
chain: TTPEPCELDDEDFRCVCNFSEPQPAWAEAFACVSAVEVEIHAGGLNLEPFLKRVDADADPRQYADTVKALRVRRLTVGAAQVPAQLLVGALRVLAYSRLKELTLEDLKITGTMPPLPLEATGLALSSLRLRNVSWATGRSWLAELQQWLKPGLKVLSIAQAHSPAFSCEQVRAFPALTSLDLSDNPGLGERGLMAALCPHKFPAIQNLALRNTGMETPTGVCAALAAAGVQPHSLDLSHNSLRATVNPSAPRCMWSSALNSLNLSFAGLEQVPKGLPAKLRVLDLSCNRLNRAPQPDELPEVDNLTLDGNPFLVPGTALPHEGSMN
Turning to B1, the binding result is “binds weakly”.

B2: human CD14 (natural protein, UniProt P08571 20-345, looked up)
chain: TTPEPCELDDEDFRCVCNFSEPQPDWSEAFQCVSAVEVEIHAGGLNLEPFLKRVDADADPRQYADTVKALRVRRLTVGAAQVPAQLLVGALRVLAYSRLKELTLEDLKITGTMPPLPLEATGLALSSLRLRNVSWATGRSWLAELQQWLKPGLKVLSIAQAHSPAFSCEQVRAFPALTSLDLSDNPGLGERGLMAALCPHKFPAIQNLALRNTGMETPTGVCAALAAAGVQPHSLDLSHNSLRATVNPSAPRCMWSSALNSLNLSFAGLEQVPKGLPAKLRVLDLSCNRLNRAPQPDELPEVDNLTLDGNPFLVPGTALPHEGSMN
B2: the binding entry was “binds”.
